From patent publication US10548319B2 (The Curators of the University of Missouri, priority 2014, dated 2020)

Assay: general procedure: solution-phase peptide synthesis; EDCI, HOBT, Et3N

Substance	step yield (coupling step) [%]	step yield (late stage modification step) [%]
[CH3(CH2)17]2NCOCH2OCH2CO-Gly-Gly-Gly-Pro-Gly-Gly-Gly-O(CH2)6CH3 (GGGPGGG; N-terminal dioctadecyl anchor, C-terminal heptyl ester; printed: Gly-Gly-Gly-Pro-Gly-Gly-Gly-)	61	
Boc-PGGG-OCH2Ph	71	
182-[DGA]-GGGPGGG-OH		94
Cbz-PGGG-OC7H15	90	
182DGA-GGGPGGG-OCH2Ph	82	
